Laboratory results from paper PMC8058342.

Sequences of proteins named here, by UniProt entry; tags and fusion partners are left off. A change or cut given only in a name is not applied to a line headed by its entry. Residues count along the entry.
UniProt P20827, residues 19-182: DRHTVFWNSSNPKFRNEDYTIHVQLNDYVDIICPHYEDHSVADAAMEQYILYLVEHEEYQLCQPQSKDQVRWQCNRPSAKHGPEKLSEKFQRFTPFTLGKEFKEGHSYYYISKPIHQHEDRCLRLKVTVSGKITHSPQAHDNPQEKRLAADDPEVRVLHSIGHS
UniProt P29317: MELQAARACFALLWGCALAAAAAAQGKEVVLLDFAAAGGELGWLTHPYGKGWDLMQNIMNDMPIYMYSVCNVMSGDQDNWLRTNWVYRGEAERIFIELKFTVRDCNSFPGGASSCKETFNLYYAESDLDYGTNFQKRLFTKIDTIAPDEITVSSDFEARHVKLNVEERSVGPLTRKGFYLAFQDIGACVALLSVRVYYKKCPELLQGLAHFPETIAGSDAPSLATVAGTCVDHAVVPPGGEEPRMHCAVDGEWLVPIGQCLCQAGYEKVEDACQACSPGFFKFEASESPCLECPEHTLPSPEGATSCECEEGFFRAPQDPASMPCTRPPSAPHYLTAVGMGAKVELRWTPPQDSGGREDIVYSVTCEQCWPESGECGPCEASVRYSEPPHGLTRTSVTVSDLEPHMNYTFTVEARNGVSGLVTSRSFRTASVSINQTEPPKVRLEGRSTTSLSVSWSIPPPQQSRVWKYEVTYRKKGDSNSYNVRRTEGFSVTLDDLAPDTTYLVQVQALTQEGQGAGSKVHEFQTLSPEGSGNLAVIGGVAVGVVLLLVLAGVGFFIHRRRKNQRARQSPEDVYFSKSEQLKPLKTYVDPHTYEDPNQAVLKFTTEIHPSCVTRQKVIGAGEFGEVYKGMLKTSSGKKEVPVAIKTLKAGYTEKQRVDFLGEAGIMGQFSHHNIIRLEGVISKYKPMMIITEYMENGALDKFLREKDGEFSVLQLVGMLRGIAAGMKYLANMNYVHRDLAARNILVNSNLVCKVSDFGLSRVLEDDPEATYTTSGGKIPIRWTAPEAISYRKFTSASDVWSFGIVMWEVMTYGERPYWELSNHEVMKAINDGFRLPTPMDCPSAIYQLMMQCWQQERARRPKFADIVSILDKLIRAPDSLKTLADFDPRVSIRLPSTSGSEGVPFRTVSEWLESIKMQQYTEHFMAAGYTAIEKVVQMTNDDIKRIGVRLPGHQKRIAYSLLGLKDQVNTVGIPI

Molecular target: Flag-tagged Ephrin A1 (human) (UniProt P20827)
Test: co-IP; Flag-Ephrin A1 co-transfected with mCherry-EphA2 or mutants in HEK-293T; lysis in 40 mM Tris, 150 mM NaCl, 1% Triton X-100, 50 mM NaF, 5 mM Na3VO4, 2 mM EDTA; precipitated with anti-Flag antibody and protein A agarose, Western blot

## mCherry-tagged EphA2-ΔS (deletion of the EphA2 SAM domain) (from UniProt P29317) (receptor)
  binding: binds

These are yes or no findings as the source states them, for the method shown. In cells and extracts the contact can be indirect. Binding calls can cover weak binding; strength is not graded here.
